Assay results published in the supplement of paper PMC11732987, “Enantioselective OTUD7B fragment discovery through chemoproteomics screening and high-throughput optimisation” (Communications Chemistry, 2025).
The list shows a part of the results. The data scatter; read single values as rough.

Legend:
[1] = compound: ClCC(=O)N[C@@H]1CCCc2ccccc12; test: log2 mean competition ratio of IA-DTB cysteine labelling (DMSO/compound) (log2 ratio); higher = stronger cysteine engagement by compound; details: treatment time: 4 h, cell line lysate: HEK293T
Procedure: (§1)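 IA-DTB competitive cysteine chemoproteomics in HEK293T RIPA lysate. Lysates were treated with compound 29 or 30 at 50 or 200 µM for 4 h, then IA-DTB (500 µM, 1 h), trypsin-digested, NeutrAvidin-enriched and analysed by diaPASEF. Competition ratio = intensity DMSO / intensity compound (n=4 treated, n=64 DMSO); binding: mean log2 CR ≥ 1 and p ≤ 0.05 plus QC filters. Target is the cysteine site.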

[2] = compound: ClCC(=O)N[C@H]1CCCc2ccccc12; test: as above; details: treatment time: 4 h, cell line lysate: HEK293T
Procedure: as §1

| Target | log2 mean competition ratio ([1]; 50 µM) | log2 mean competition ratio ([1]; 200 µM) | log2 mean competition ratio ([2]; 50 µM) | log2 mean competition ratio ([2]; 200 µM) |
| --- | --- | --- | --- | --- |
| DIP2A C6 (UniProt Q14689) | 0.017 | -0.0877 | 0.307 | 0.188 |
| DOCK11 C1906 | 0.00923 | -0.0579 | -0.239 | -0.279 |
| DHX37 C638 (UniProt Q8IY37) | 0.241 | 0.0726 | 0.155 | 0.165 |
| DHX8 C123 (UniProt Q14562) | -0.0733 | 0.179 | -0.486 | 0.0486 |
| DHX34 C32 (UniProt Q14147) | 0.0247 | 0.738 | -0.141 | 0.494 |
| DNMT1 C62 (UniProt P26358) | 0.489 | -0.189 | 0.583 | 0.00346 |
| DNAJC1 C535 (UniProt Q96KC8) | -0.143 | 0.157 | -0.149 | 0.175 |
| DR1 C94 (UniProt Q01658) | -0.0107 | -0.182 | 0.308 | -0.117 |
| DNAJC13 C1354 (UniProt O75165) | 0.0832 | -0.166 | 0.194 | -0.0982 |
| DPYSL4 C90 | 0.0327 | 0.394 | 0.461 | 0.28 |
| DNAJC6 C268 (UniProt O75061) | -0.164 | -0.00663 | -0.261 | -0.0179 |
| DIS3L C482 (UniProt Q8TF46) | -0.216 | -0.144 | -0.328 | 0.204 |
| DOHH C122 (UniProt Q9BU89) | -0.135 | -0.25 | 0.00568 | -0.13 |
| DHX30 C765 (UniProt Q7L2E3) | 0.4 | 0.0379 | 0.253 | 0.09 |
| DLG5 C1816 (UniProt Q8TDM6) | 0.253 | 0.387 | -0.697 | 0.317 |
| DPF2 C24 (UniProt Q92785) | 0.329 | 0.057 | 0.167 | -0.151 |
| DHX36 C261 (UniProt Q9H2U1) | -0.186 | -0.146 | 0.298 | 0.0893 |
| DNAAF2 C380 (UniProt Q9NVR5) | -0.318 | 0.212 | -0.284 | -0.256 |
| DENND6A C208 (UniProt Q8IWF6) | -0.206 | 0.211 | 0.418 | -0.123 |
| DOT1L C1075 (UniProt Q8TEK3) | -0.125 | 0.0325 | -0.284 | -0.0691 |
| DHX57 C571 (UniProt Q6P158) | 0.342 | -0.184 | 0.417 | -0.218 |
| DIAPH2 C159 (UniProt O60879) | 0.00269 | -0.0269 | -0.657 | -0.308 |

Limited to log2 mean competition ratio ([2]; 50 µM), log2 mean competition ratio ([1]; 200 µM) and log2 mean competition ratio ([1]; 50 µM), for some of the entries so far:
Target	log2 mean competition ratio ([2]; 50 µM)	log2 mean competition ratio ([1]; 200 µM)	log2 mean competition ratio ([1]; 50 µM)
DPF2 C24 (UniProt Q92785)	0.167	0.057	0.329
DENND6A C208 (UniProt Q8IWF6)	0.418	0.211	-0.206

Later entries:

| Target | log2 mean competition ratio ([1]; 50 µM) | log2 mean competition ratio ([1]; 200 µM) | log2 mean competition ratio ([2]; 50 µM) | log2 mean competition ratio ([2]; 200 µM) |
| --- | --- | --- | --- | --- |
| DHPS C177 | 0.458 | 0.0075 | 0.588 | 0.0468 |
| DNAJC12 C129 (UniProt Q9UKB3) | -0.0403 | -0.0688 | -0.06 | -0.027 |
| DHX40 C139 (UniProt Q8IX18) | -0.18 | 0.231 | -0.301 | 0.265 |
| DHX34 C628 (UniProt Q14147) | 0.171 | -0.0583 | 0.0271 | 0.0165 |
| DGAT1 C218 (UniProt O75907) | -0.0461 | 0.0827 | 0.148 | 0.29 |
| DPYSL5 C22 | 0.0109 | -0.222 | 1.23 | -0.437 |
| DICER1 C1354 (UniProt Q9UPY3) | 0.129 | -0.072 | 0.0833 | -0.0348 |
| DHX9 C438 (UniProt Q08211) | -0.216 | -0.228 | -0.263 | -0.0914 |
| DNAAF2 C673 (UniProt Q9NVR5) | -0.0972 | -0.0412 | -0.212 | -0.0721 |
| DOK1 C463 (UniProt Q99704) | 0.192 | -0.0145 | -0.025 | 0.00572 |
| DIDO1 C455 (UniProt Q9BTC0) | 0.188 | 0.0334 | 0.14 | 0.0199 |
| DNAJC14 C422 (UniProt Q6Y2X3) | -0.127 | 0.062 | -0.356 | 0.00904 |
| DOCK11_(C150,C150,C160,C160) | -0.183 | -0.00205 | 0.0843 | -0.0618 |
| DICER1 C1153 (UniProt Q9UPY3) | 0.0144 | 0.0907 | -0.142 | 0.129 |
| DNAJC7 C58 (UniProt Q99615) | -0.0873 | -0.154 | 0.399 | 0.0834 |
| DNAJC11 C38 (UniProt Q9NVH1) | 0.173 | -1.76 | -0.209 | -0.287 |
| DHX15 C190 (UniProt O43143) | -0.018 | -0.192 | -0.193 | 0.137 |
| DIS3 C533 (UniProt Q9Y2L1) | -0.138 | -0.0998 | 0.397 | 0.0303 |
| DHX40 C573 (UniProt Q8IX18) | 0.217 | -0.0569 | 0.202 | 0.186 |
| DNMBP C327 (UniProt Q6XZF7) | -0.27 | 0.379 | -0.349 | -0.0904 |
| DIAPH3 C1125 (UniProt Q9NSV4) | 0.179 | 0.158 | 0.424 | 0.1 |
| DHX30 C309 (UniProt Q7L2E3) | -0.0379 | 0.11 | -0.179 | 0.203 |
